This assay is described as follows: qHTS Assay to Find Inhibitors of Chronic Active B-Cell Receptor Signaling. Conditions: ABC-DLBCL IkBa-CBG/CBR reporter, luminescence ratio (green luciferase fused to IkBa over red control in TMD8 lymphoma cells), 4 h. In a few lines: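 TMD8 ABC-DLBCL cells carrying doxycycline-inducible green luciferase fused to IkappaBalpha plus unfused red luciferase were exposed to compounds (up to 46 uM) for 4 hrs at 37C. Activity came from the overlap-corrected green/red luminescence ratio.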
On the technique in general: Quantitative high-throughput screening tests each substance at several concentrations.

The mark [1] stands for this setting: measured here: CBR red luminescence, cell number.
The mark [2] stands for this setting: measured here: IkBa-CBG green luminescence.

This passage reports AC50 results from PubChem BioAssay AID493014 (National Center for Advancing Translational Sciences (NCATS), 2011).

As a reminder, the AC50 is the midpoint of the concentration-response curve, whichever way the signal moves.

The list shows a part of the results. Shown are side measurements of this screen, not its main read-out; they come without a call. Most of these compounds were active or inconclusive in the main read-out, so they are no random draw. The note in brackets gives the kind of curve behind each potency; many fits are weak.

In the case of `O=C(c1ccco1)N1CCN(CC(O)Cn2c3ccccc3c3ccccc32)CC1` (stereo unspecified), the AC50 under setting [1] is 6.51 µM [falling, single point]. In the case of `Cc1cc(NC(=O)CCN2CCN(Cc3ccccc3)CC2)ccc1Br`, the AC50 under setting [1] was 3.55 µM [rising, single point]. Consider `COc1ccc(CN2CCN(c3cccc(C)c3C)CC2)cc1OC`, for which the AC50 under setting [1] is 14.6 µM [rising, single point]. For the compound `CCCCCc1c(C)c(C#N)c2nc3ccccc3n2c1-n1ccnc1C`, under setting [1], the AC50 was 5.01 µM [rising, single point]. On the same count and under the same terms, as for `Cc1ccc(SCC(=O)Nc2ccc(C(=O)Nc3ccc(O)cc3)cc2)cc1`, the figure is 35.5 µM [rising, partial curve, poor fit]; as for `CC(=O)N(c1ccccc1)C1CC(C)N(C(=O)c2ccccc2)c2ccccc21` (stereo unspecified), 12.6 µM [falling, partial curve, poor fit]; as for `COC(=O)c1cc(CNC(=O)c2cccc(Cl)c2)ccc1OC`, 1.46 µM [rising, full curve, poor fit]. For the compound `CCN(CC(=O)Nc1c(F)cccc1F)C(=O)CCCc1c[nH]c2ccccc12`, under setting [1], the AC50 was 11.2 µM [falling, partial curve].

Take `CCN(CC)C(=O)c1[nH]cnc1C(=O)Nc1ccc(Cl)cc1`: the concentration at half-maximal activity (AC50) under setting [1] was 0.731 µM [rising, partial curve, poor fit]. Regarding `O=C(CCN1CCOCC1)c1ccc(N2CCCCC2)cc1`, the AC50 under setting [1] was 20.6 µM [falling, single point] and the concentration at half-maximal activity (AC50) under setting [2] was 20.6 µM [rising, partial curve, poor fit]. In the case of `CCOC(=O)Cn1c(=S)[nH]c2c(oc3ccc(Cl)cc32)c1=O`, the concentration at half-maximal activity (AC50) under setting [1] was 0.146 µM [rising, full curve, poor fit]. For `Oc1[nH]c2ccccc2c1N=Nc1ccccc1`, under setting [1], the AC50 was 35.5 µM [falling, single point]. With `CCOC(=O)c1c(O)c2ccccc2n(C)c1=O`, the half-maximal activity concentration (AC50) under setting [1] was 12.6 µM [falling, partial curve, poor fit]. Still for that read-out and setting: under `COC(=O)C1CCN(C(=O)/C=C/c2ccc(OC)cc2)CC1` stands 0.092 µM [falling, full curve]; under `C=CCn1c(N2CCCCCC2)nc2c1c(=O)n(C)c(=O)n2C`, 0.2 µM [falling, full curve, poor fit]. Same read-out and setting: under `C=C(C)COc1ccc(-c2nc(N)nc(C)c2-c2ccc(OC)cc2)c(O)c1` stands 6.51 µM [rising, single point]; under `CCCCNC(=O)N(CC)c1c(N)n(Cc2ccccc2)c(=O)[nH]c1=O`, 14.1 µM [rising, single point]; under `Clc1ccc(OCCOCCNCc2ccccc2)cc1Cl`, 35.5 µM [falling, single point].

Consider `O=C(CSc1ncnc2ccccc12)Nc1ccc2c(c1)OCO2`, for which, under setting [1], the half-maximal activity concentration (AC50) was 29.1 µM [falling, single point]. Same read-out and setting: as for `O=C1CCC/C(=N/NC(=O)c2ccc(NS(=O)(=O)c3cccs3)cc2)C1`, the figure is 8.91 µM [falling, partial curve]; as for `CCOC(=O)c1[nH]c(CN2CCN(c3ccc(OC)cc3)CC2)c(C(=O)OCC)c1C`, 0.708 µM [rising, full curve, poor fit]; as for `COC(=O)c1ccc(CN2C(=O)NC3(CCC(C)CC3)C2=O)cc1` (stereo unspecified), 35.5 µM [falling, single point]. For the compound `COc1ccc2nc(SCC(=O)C(C)(C)C)[nH]c2c1`, the AC50 under setting [1] is 0.794 µM [rising, full curve, poor fit]. The same measure, in the same setting: under `CCC(C)NC(=O)CSc1nc2n[nH]c(C)c2c(=N)n1-c1cc(Cl)ccc1C` (stereo unspecified) stands 0.708 µM [rising, partial curve, poor fit]; under `O=C(NCc1ccccn1)C(=O)Nc1cccc2ccccc12`, 7.08 µM [falling, partial curve]. Regarding `O=C(Nc1nnc(C2CC2)s1)c1cccs1`, under setting [1], the concentration at half-maximal activity (AC50) is 12.6 µM [falling, partial curve]. For the compound `COC(=O)C1=C(C)NC(=O)/C1=C\c1ccc2c(c1)OCO2`, under setting [1], the AC50 is 11.2 µM [falling, partial curve]. In the case of `O=C(Nc1cccc(Cl)c1)Nc1cc(S(=O)(=O)N2CCOCC2)ccc1N1CCCC1`, under setting [1], the concentration at half-maximal activity (AC50) was 13 µM [rising, partial curve, poor fit].

As to `CC(C)CC1(C)NC(=O)N(CC(=O)Nc2cccc(S(=O)(=O)N(C)c3ccccc3)c2)C1=O` (stereo unspecified), the AC50 under setting [1] was 1.58 µM [falling, partial curve, poor fit].

For the compound `C[C@H](CO)N1C[C@H](C)[C@@H](CN(C)Cc2ccc(C(=O)O)cc2)Oc2c(NC(=O)C3CC3)cccc2C1=O`, the AC50 under setting [1] is 23.1 µM [rising, partial curve, poor fit]. As for `Cc1cn(C)c(CC(=O)N2CCN(c3cccc(Cl)c3)CC2)c1C(=O)O`, the half-maximal activity concentration (AC50) under setting [1] was 12.6 µM [falling, single point].

Turning to `Cc1ccc(-c2nc(C#N)c(N3CCC(C)CC3)o2)cc1`, the AC50 under setting [1] is 3.16 µM [rising, partial curve, poor fit].

Regarding `COc1ccc(Nc2nnc(-c3ccc(O)cc3)c3ccccc23)cc1`, under setting [1], the AC50 is 12.6 µM [falling, single point]. Regarding `OCCC1CN(Cc2c(O)ccc3ccccc23)CCN1CCc1ccccc1` (stereo unspecified), under setting [1], the AC50 was 0.501 µM [falling, full curve, poor fit]. With `C/C=C\C(=O)Nc1cccc(C2=NOC3(C2)C[C@@H](C(N)=O)N(C(=O)CC(c2ccccc2)c2ccccc2)C3)c1` (stereo partly specified), the AC50 under setting [1] was 35.5 µM [falling, single point]. `CCOC(=O)C1(C)C(C(=O)OC)=C(c2ccc(OC)cc2)c2ccccc2N1C(=O)OC` (stereo unspecified): the half-maximal activity concentration (AC50) under setting [2] is 14.6 µM [falling, partial curve, poor fit]. Consider `CCN1CCN(Cc2ccc(NC(=O)c3cc(NC(=O)c4cc(-c5ccc(OC)cc5)n[nH]4)cc(OC)c3)cc2C(F)(F)F)CC1`, for which the half-maximal activity concentration (AC50) under setting [1] was 11.2 µM [falling, partial curve]. Regarding `COc1ccc(OC)c(-c2nnc3n2N=C(c2ccc(OC)c(OC4CCCC4)c2)CS3)c1`, the concentration at half-maximal activity (AC50) is, setting by setting: under setting [1], 4.61 µM [falling, single point]; under setting [2], 9.2 µM [falling, single point]. As for `O=C(CN1C(=O)C2CC=CCC2C1=O)Nc1nc(-c2ccc(F)cc2)cs1` (stereo unspecified), the AC50 under setting [1] was 9.2 µM [falling, partial curve]. Regarding `O=C(Nc1nc(-c2ccncc2)cs1)C1c2ccccc2Oc2ccccc21`, under setting [1], the half-maximal activity concentration (AC50) is 29.1 µM [falling, single point]. As to `COc1ccc(NC(=O)c2c(NCc3sccc3C)sc3c2CCCC3)c(OC)c1`, the AC50 under setting [1] is 14.1 µM [rising, single point]. `Cc1ccc(NC(=O)COC(=O)C(NS(=O)(=O)c2ccc(Cl)cc2)C(C)O)cc1C` (stereo unspecified): the AC50 under setting [1] is 7.31 µM [falling, partial curve]. With `CC(=O)Nc1ccc(NC(=O)c2ccc(-c3ccccc3Cl)o2)cc1`, under setting [1], the AC50 is 20.6 µM [rising, partial curve, poor fit].

With `CCOc1ccc(NC(=O)c2c(NC(=O)CNCCN3CCOCC3)sc3c2CCC3)cc1`, the AC50 under setting [1] was 15.8 µM [falling, single point]. For the compound `Cc1ccc(NC(=O)c2cccc(N3C(=O)C4C5C=CC(C5)C4C3=O)c2)cc1C` (stereo unspecified), the concentration at half-maximal activity (AC50) under setting [1] was 6.31 µM [falling, single point].

`Cc1ccccc1NC(=O)CCN1CCCC1`: the concentration at half-maximal activity (AC50) under setting [1] was 6.31 µM [rising, single point]. The same measure, in the same setting: as for `CCN(CC)P(=O)(Nc1ccc(C)cc1Br)c1ccc(N(C)C)cc1NC(=O)c1ccco1` (stereo unspecified), the figure is 35.5 µM [falling, single point]; as for `CC(C)(C)c1ccc(-c2ncccc2O)cc1`, 0.708 µM [rising, full curve, poor fit]; as for `Cn1c(=O)c2c(nc(CN3CCC(C(N)=O)CC3)n2CCCc2ccccc2)n(C)c1=O`, 13 µM [falling, single point]. The same measure, in the same setting: as for `O=C(Nc1ccc2c(c1)C(=O)NC2=O)c1ccc2ncsc2c1`, the figure is 15.8 µM [falling, partial curve, poor fit]. On to `Clc1ccccc1CN1CCC(Cc2ccccc2)CC1`, for which the half-maximal activity concentration (AC50) under setting [1] was 18.4 µM [rising, single point]. Regarding `O=S(=O)(c1ccc2ccccc2c1)N1CCCOC1`, the AC50 under setting [1] was 31.6 µM [rising, single point].

For `Cc1c(C(=O)C(=O)NCCC2=CCCCC2)c2ccccc2n1C`, under setting [1], the AC50 is 10.3 µM [rising, partial curve, poor fit]. As for `CCOc1ccccc1NC=C1C(=O)OC(C)(C)OC1=O`, under setting [1], the AC50 is 35.5 µM [rising, single point]. Take `COc1ccc(NC(=O)c2cccc(-n3c(C)ccc3C)c2)c(OC)c1`: the AC50 under setting [1] is 7.31 µM [falling, partial curve]. As for `COc1ccc(-c2nsc(SCC(=O)NCc3ccc4c(c3)OCO4)n2)cc1`, under setting [1], the AC50 is 2.31 µM [rising, full curve, poor fit]. Consider `COc1cccc(/C=C2\SC(=S)N(CCC(=O)N3CCCCC3CCO)C2=O)c1` (stereo unspecified), for which the half-maximal activity concentration (AC50) under setting [1] was 10 µM [falling, partial curve].

Regarding `N#C/C(=N\Nc1ccc(Br)cc1)C(=N)N1CCOCC1`, the concentration at half-maximal activity (AC50) under setting [1] is 35.5 µM [falling, single point]. Regarding `Cc1ccc(/C=C2\SC(=S)N(C3CCS(=O)(=O)C3)C2=O)o1` (stereo unspecified), the concentration at half-maximal activity (AC50) under setting [1] was 20 µM [falling, partial curve, poor fit]. With `O=C(c1cnn(-c2cccc(F)c2)c1)c1ccccc1O`, the AC50 under setting [1] is 35.5 µM [falling, single point]. As for `Cc1cccc(/C=N/NC(=O)Cc2ccc(Cl)cc2)c1O`, the AC50 under setting [1] was 0.282 µM [rising, full curve, poor fit]. Same read-out and setting: under `O=C(Nc1ccccc1)C(=O)Nc1ccc2c(c1)N(C(=O)C1CC1)CCC2` stands 4.11 µM [falling, partial curve]; under `O=C(/C=C\c1ccccc1)Nc1nccs1`, 3.26 µM [falling, full curve]; under `COc1ccc(C(=O)C2CCCN(Cc3cnc(N4CCOCC4)s3)C2)cc1F` (stereo unspecified), 12.6 µM [falling, partial curve, poor fit].
